# Reference: the supplement of paper PMC5949888
# Most values lie at the floor of the assay. Slopes are relative: functional sequences can read slightly below zero.
# System: Saccharomyces cerevisiae PS128 hsf1 delta, HSF1(1-493) fusion
# Test: growth estimate (transactivation domain function in HSF1 fusion, heat-shock survival) (a.u. (slope of normalised read count over time)); higher = stronger growth at 37°C, i.e. more transactivation activity
# Conditions: library: random library
row,Substance,growth estimate
1,IIRDTIMDCDYLVESS,< -0.25
2,IIRLVKGFFLE,< -0.25
3,IIRVCIRG,< -0.25
4,IISGSASIQTGLSCSWAMMA,< -0.25
5,IISSFECAPQRYADSYFADG,< -0.25
6,IISSPGRVSHCTWTEKSVVI,< -0.25
7,IISWWLYYSGIYYGQGFRSV,< -0.25
8,IIT,0.0112
9,IIVEIIRAGRGSETHARDTT,-0.25
10,IIVLG,< -0.25
11,IIVRTPTLEWPYGRHHDAVH,< -0.25
12,IIWAGLSHGRNEQGFAQYTD,< -0.25
13,IKASGTI,< -0.25
14,IKFTQVEL,< -0.25
15,IKHRT,< -0.25
16,IKL,< -0.25
17,IKLAAKRISNQGRASWLELT,< -0.25
18,IKLKGRVRCLDTPRSTGSVS,< -0.25
19,IKLKLNKHQGHIC,< -0.25
20,IKQ,< -0.25
21,IKQDSLPGGRRSLTVSRHKM,< -0.25
22,IKR,< -0.25
23,IKRAI,< -0.25
24,IKRGRTSVITAKIAHTKNSR,< -0.25
25,IKSASKRAANSKTYNRYALG,< -0.25

row,Substance,growth estimate
1,IKSRCLRKRDSRSRYRLRMS,< -0.25
2,IKTGTVGSLRRTRGNTRGLL,< -0.25
3,IKTRVQRDRNRSSRICDQVC,< -0.25
4,IKYGARSQG,< -0.25
5,IKYINALRGE,< -0.25
6,IKYTEQRGWTDYNSSAVHAD,< -0.25
7,ILALID,< -0.25
8,ILCLLTVRIISHKFEACTTA,< -0.25
9,ILCRSVPAHPRR,< -0.25
10,ILCSYHRRACWVS,< -0.25
11,ILCWGTVAIVQ,< -0.25
12,ILEPDVK,< -0.25
13,ILFRPA,< -0.25
14,ILFSRSPGPTSL,< -0.25
15,ILHGL,< -0.25
16,ILHLALN,< -0.25
17,ILHLLSLSDGPCGD,< -0.25
18,ILKVSDGWFIVALQAQCKLT,< -0.25
19,ILKVWSALRPDTRMSMGPLP,< -0.25
20,ILLINKTNRRTFDGLQ,< -0.25
21,ILLTGAFCTFTWGQVLCHGG,< -0.25
22,ILMSVDP,< -0.25
23,ILNASRWRLILTVASADFAR,< -0.25
24,ILNLTRLLPFCASLMVENLA,< -0.25
25,ILQGRFGGRTTMPPSGS,-0.246

row,Substance,growth estimate
1,ILQGRILWFLVLNLRCSASR,< -0.25
2,ILQKPRGLSMAKEGVQAYSS,< -0.25
3,ILRGNQSGSRSFRGPQ,< -0.25
4,ILRW,< -0.25
5,ILRWCSPRRPACEI,< -0.25
6,ILSGDNSAHLLAAFDYIRPG,< -0.25
7,ILSI,< -0.25
8,ILSKPILLQFVRWCFQAWSL,< -0.25
9,ILSQLCP,< -0.25
10,ILSRRPGVKSRAYIDSCSML,< -0.25
11,ILSW,< -0.25
12,ILTLQSVLNVGMDGPRRTFR,< -0.25
13,ILTLSLNSWGKVWEYGWKVG,< -0.25
14,ILTSGSTLDFNALILDSEST,< -0.25
15,ILVILGHR,-0.243
16,ILWSLETVPYSMH,-0.0809
17,ILYHGKRPATLLYAAQRETS,< -0.25
18,IMARN,< -0.25
19,IMASRYEGCIVLELPPGSFK,< -0.25
20,IMGLAPRA,< -0.25
21,IMILQRLCSDRNMVTKDGPS,< -0.25
22,IMNSGGSTGGTPAMSLQRSL,-0.246
23,IMRL,< -0.25
24,INAAVG,< -0.25
25,INDPWCSRTPPCVLRSLHQA,< -0.25

row,Substance,growth estimate
1,INGFYEPLRELIWEF,0.124
2,INH,< -0.25
3,INLRVSCVMIGCRSDSP,< -0.25
4,INLTRIPVVTANLGFALTRL,< -0.25
5,INPR,< -0.25
6,INPTQDIITVS,< -0.25
7,INRVK,< -0.25
8,INTRWERIGR,-0.243
9,INVNAVVWSFGRVPRFLQCQ,< -0.25
10,INYSNPVIYVIP,< -0.25
11,IPAFTMLQ,< -0.25
12,IPCNEAGFTQGGLIERVSGY,< -0.25
13,IPCRAKAPPSIHVVAAYWAV,< -0.25
14,IPDHKAQS,< -0.25
15,IPDNAAISSFLKVLVGGQPP,< -0.25
16,IPDT,< -0.25
17,IPERASREQMFWAADVGRLN,-0.245
18,IPGGVSSDALDEGPSQFPLS,< -0.25
19,IPH,< -0.25
20,IPHKLSRQQCGPVQHFSGPV,< -0.25
21,IPKNEDRRPEHEYRTLVVAS,< -0.25
22,IPLLQLTVNRRECRTLNRRI,< -0.25
23,IPLQQ,< -0.25
24,IPNSGPSIRWSESKNSFSKR,< -0.25
25,IPPGKHPINMAKHSGGLCSR,< -0.25

row,Substance,growth estimate
1,IPQ,< -0.25
2,IPQEYNLHSYVFWL,< -0.25
3,IPQYLHLIVPYRVRRSAAGV,< -0.25
4,IPSNTYS,< -0.25
5,IPSS,< -0.25
6,IPSTLTHS,< -0.25
7,IPTVASKCQP,< -0.25
8,IPVQHSVCTIFRRSQVAAGG,< -0.25
9,IPVRDANLRERPELGNNLGG,< -0.25
10,IQAQGRFSLAVVEHVDRKLV,< -0.25
11,IQASNATRGFGVRIHPERC,-0.246
12,IQAYTSGHRSGRDCWRSDAV,< -0.25
13,IQCETLVLREVRGAE,< -0.25
14,IQCVLFAGLLPTSQAVF,< -0.25
15,IQEIRAPRSHATDTSGDQRW,< -0.25
16,IQGARARPR,< -0.25
17,IQGLQEGSPK,< -0.25
18,IQGPLAELRCTANSWIFHVE,< -0.25
19,IQLPFLVRMLRACRTSPG,< -0.25
20,IQRPSGPCLANRPLYYNYVG,-0.228
21,IQVFHVSVRGTTGMESIVLL,< -0.25
22,IQVGHETLYFSR,< -0.25
23,IQVPRVEKERLFCISTTEIQ,< -0.25
24,IQVRCVELVRHMVCSTAVRR,< -0.25
25,IQYY,< -0.25

# Part of the list above, with bars between the fields.
row | Substance | growth estimate
11 | IQASNATRGFGVRIHPERC | -0.246
12 | IQAYTSGHRSGRDCWRSDAV | < -0.25
13 | IQCETLVLREVRGAE | < -0.25
14 | IQCVLFAGLLPTSQAVF | < -0.25
15 | IQEIRAPRSHATDTSGDQRW | < -0.25
16 | IQGARARPR | < -0.25

# Next entries follow.

row,Substance,growth estimate
1,IRAKLRPSVGGDIEA,< -0.25
2,IRDCVLSTGPNLKHEICRRR,< -0.25
3,IRDPSAGFVSNVRVDRKDPA,< -0.25
4,IRDQDTVTVIYRRFRGSSSG,< -0.25
5,IRETVSKNGSSLPPSPF,< -0.25
6,IRFVYVGTALVKERRL,< -0.25
7,IRGIWENNESYLSSLL,< -0.25
8,IRGPRQLARSLAFGSTAGGS,< -0.25
9,IRGQECLGARS,< -0.25
10,IRGRALLEWQ,< -0.25
11,IRGRLLSPTDTGVVEIK,< -0.25
12,IRGVETNPRVGSHRRRYRLV,< -0.25
13,IRLECSERSTI,< -0.25
14,IRLVIDFVRQFTSDGYSSRN,< -0.25
15,IRNTGRLNDTMQLRSRVGPP,< -0.25
16,IRPGSATWNHKIPGIPLVPG,< -0.25
17,IRPTGFTHR,< -0.25
18,IRPVVDTRVVAQIDDRGVPE,< -0.25
19,IRQRTLEPLA,< -0.25
20,IRRFQRASCFPTGSGYNESG,< -0.25
21,IRRLRYIEVYLRGFR,< -0.25
